# Assay results published in PubChem BioAssay AID1479146 (National Center for Advancing Translational Sciences (NCATS), 2020).
# This list was built around the results that the source calls inconclusive (neither active nor inactive); the mix of calls is not that of the screen. Potencies beside an inconclusive call are fits to weak or partial responses and may not hold up. The source made the active and inactive calls. Calls come from the whole dose curve.
# Experiment: Confirmatory qHTS for Huh7 cytotoxicity: counterscreen for inhibitors of MERS-S pseudo-typed particle cell entry
# Settings: viability; series mostly up to 57.1 µM
row,SMILES,Potency
1,CC(C)C[C@H](NC(=O)[C@H](CCc1ccccc1)NC(=O)CN1CCOCC1)C(=O)N[C@@H](Cc1ccccc1)C(=O)N[C@@H](CC(C)C)C(=O)[C@@]1(C)CO1,active: 0.192 µM
2,CC(=O)N1CCN(c2ccc(OC[C@H]3CO[C@](Cn4ccnc4)(c4ccc(Cl)cc4Cl)O3)cc2)CC1,inactive
3,COc1cccc2c1C(=O)c1c(O)c3c(c(O)c1C2=O)C[C@@](O)(C(=O)CO)CC3OC1CC(N2CCOC(OC)C2)C(O)C(C)O1 (stereo partly drawn),active: 0.136 µM
4,CN1CCC(=C2c3ccccc3CCc3sccc32)CC1,inactive
5,C[C@H]1[C@H](OC(=O)CCC(=O)O)O[C@@H]2O[C@@]3(C)CC[C@H]4[C@H](C)CC[C@@H]1[C@@]24OO3,"inconclusive: 15.2 µM [cytotoxic, partial curve]"
6,O=C(O)c1cc(O)c2c(c1)[C@H]([C@H]1c3cc(C(=O)O)cc(O)c3C(=O)c3c(O[C@@H]4O[C@H](CO)[C@@H](O)[C@H](O)[C@H]4O)cccc31)c1cccc(O[C@@H]3O[C@H](CO)[C@@H](O)[C@H](O)[C@H]3O)c1C2=O,"inconclusive: 23.5 µM [cytotoxic, partial curve, poor fit]"
7,C[n+]1c2cc(N)ccc2cc2ccc(N)cc21 (tested in a mixture with another compound),active: 3.83 µM
8,COc1cc2nccc(Oc3ccc(NC(=O)C4(C(=O)Nc5ccc(F)cc5)CC4)cc3)c2cc1OC,"inconclusive: 17.1 µM [cytotoxic, partial curve]"
9,COC(=O)C1=C(C)NC(C)=C(C(=O)OCC(C)C)C1c1ccccc1[N+](=O)[O-] (stereo not drawn),"inconclusive: 19.2 µM [cytotoxic, partial curve]"
10,CC[C@@]1(O)C(=O)OCc2c1cc1n(c2=O)Cc2cc3c([N+](=O)[O-])cccc3nc2-1,"inconclusive: 1.97 µM [cytotoxic, full curve]"
11,O=C1c2c(O)ccc(O)c2C(=O)c2c(NCCNCCO)ccc(NCCNCCO)c21,active: 17.1 µM
12,CNCCCC12CCC(c3ccccc31)c1ccccc12,"inconclusive: 42.9 µM [cytotoxic, single point]"
13,Cc1ccc(NC(=O)c2ccc(CN3CCN(C)CC3)cc2)cc1Nc1nccc(-c2cccnc2)n1,"inconclusive: 17.1 µM [cytotoxic, partial curve, poor fit]"
14,COc1cc(NS(C)(=O)=O)ccc1Nc1c2ccccc2nc2ccccc12,"inconclusive: 38.3 µM [cytotoxic, single point]"
15,CN1CCCCC1CCN1c2ccccc2Sc2ccc(S(C)=O)cc21 (stereo not drawn),"inconclusive: 12.1 µM [cytotoxic, partial curve, poor fit]"
16,COc1cc([C@@H]2c3cc4c(cc3C(O[C@@H]3O[C@@H]5CO[C@@H](c6cccs6)OC5[C@H](O)[C@H]3O)C3COC(=O)[C@@H]32)OCO4)cc(OC)c1O (stereo partly drawn),active: 5.41 µM
17,Nc1nc(Cl)nc2c1ncn2C1CC(O)C(CO)O1 (stereo not drawn),"inconclusive: 13.6 µM [cytotoxic, single point]"
18,C=C(C)[C@H]1Cc2c(ccc3c2O[C@@H]2COc4cc(OC)c(OC)cc4[C@@H]2C3=O)O1,active: 6.81 µM
19,CCN(CC)Cc1cc(Nc2ccnc3cc(Cl)ccc23)ccc1O,"inconclusive: 27.1 µM [cytotoxic, partial curve, poor fit]"
20,CN1CCN(CCC=C2c3ccccc3Sc3ccc(S(=O)(=O)N(C)C)cc32)CC1,"inconclusive: 34.1 µM [cytotoxic, single point]"
21,c1ccc2c(c1)Sc1ccccc1N2CC1CN2CCC1CC2 (stereo not drawn),active: 30.4 µM
22,CC[C@@]1(O)C(=O)OCc2c1cc1n(c2=O)Cc2cc3c(CN(C)C)c(O)ccc3nc2-1,"inconclusive: 27.1 µM [cytotoxic, single point]"
23,COc1cccc2c1C(=O)c1c(O)c3c(c(O)c1C2=O)C[C@@](O)(C(=O)CO)C[C@@H]3O[C@H]1C[C@H](N)[C@@H](O)[C@H](C)O1,active: 2.15 µM
24,Oc1c(Cl)cc(Cl)c(Cl)c1Cc1c(O)c(Cl)cc(Cl)c1Cl,"inconclusive: 2.41 µM [cytotoxic, full curve, poor fit]"
25,Cc1cn([C@H]2C[C@H](N=[N+]=[N-])[C@@H](CO)O2)c(=O)[nH]c1=O,inactive
26,COc1cccc2c1C(=O)c1c(O)c3c(c(O)c1C2=O)C[C@@](O)(C(C)=O)C[C@@H]3O[C@H]1C[C@H](N)[C@H](O)[C@H](C)O1,active: 6.07 µM
27,CCN(CC)CCNC(=O)c1c(C)[nH]c(/C=C2\C(=O)Nc3ccc(F)cc32)c1C,active: 27.1 µM
28,C[C@]12CC[C@H](O)C[C@H]1CCC1C2CC[C@]2(C)[C@@H](c3ccc(=O)oc3)C[C@H]3O[C@]132 (stereo partly drawn),active: 15.2 µM

# Two entries drawn at random from those above:
row,SMILES,Potency
17,Nc1nc(Cl)nc2c1ncn2C1CC(O)C(CO)O1 (stereo not drawn),"inconclusive: 13.6 µM [cytotoxic, single point]"
10,CC[C@@]1(O)C(=O)OCc2c1cc1n(c2=O)Cc2cc3c([N+](=O)[O-])cccc3nc2-1,"inconclusive: 1.97 µM [cytotoxic, full curve]"
